Measurements as given in the supplement of paper PMC3682954.
Structures can show the parent of a compound that is named as a salt. ± gives the standard deviation of the averaged measurements. Some of the results follow. Single values are uncertain, as repeats are few or missing.

Test system: RAW 264.7
Experiment: cell viability (MTT) relative to vehicle control; higher = more viable cells
Conditions: compound concentration: 3 uM; stimulus: HMGB1 5 ug/ml, 18 h

Compound | cell viability [%]
NS(=O)(=O)c1cc2c(cc1C(F)(F)F)NC(Cc1ccccc1)NS2(=O)=O (centres undefined) | 103
NS(=O)(=O)c1cc2c(cc1C(F)(F)F)NC(Cc1ccccc1)NS2(=O)=O (centres undefined) [Bendroflumethiazide] | 131
O=C(CCCCCCCCCCCCC1CCCC1)Nc1ccc(S(=O)(=O)c2ccc(NC(=O)CCCCCCCCCCCCC3CCCC3)cc2)cc1 | 72.4
CC(CN1c2ccccc2Sc2ccccc21)N(C)C (centres undefined) [Promethazine] | 110
CC(CN1c2ccccc2Sc2ccccc21)N(C)C (centres undefined) [Promethazine hydrochloride] | 96.1 ± 1.4
CC(CN1c2ccccc2Sc2ccccc21)N(C)C (centres undefined) | 110
Cn1nnnc1SCC1=C(C(=O)O)N2C(=O)[C@@H](NC(=O)[C@H](OC=O)c3ccccc3)[C@H]2SC1 | 105
NC[C@@H]1O[C@H](c2ccccc2)Cc2c1ccc(O)c2O | 111
O=C1CC2(CCCC2)CC(=O)N1CCNCC1COc2ccccc2O1 (centres undefined) | 104
CCOC(=O)[C@H](CCc1ccccc1)N[C@@H](C)C(=O)N1CCC[C@H]1C(=O)O | 107
CCOC(=O)[C@H](CCc1ccccc1)N[C@@H](C)C(=O)N1CCC[C@H]1C(=O)O [Enalapril] | 105
CCOC(=O)[C@H](CCc1ccccc1)N[C@@H](C)C(=O)N1CCC[C@H]1C(=O)O [Enalapril maleate] | 104
CO/N=C(\C(=O)N[C@@H]1C(=O)N2C(C(=O)O)=C(C[N+]3(C)CCCC3)CS[C@H]12)c1csc(N)n1 [Cefepime hydrochloride] | 94
NOCC(=O)O [O-(Carboxymethyl)hydroxylamine hemihydrochloride] | 106
C[C@]12CC[C@@H]3c4ccc(O)cc4CC[C@H]3[C@@H]1C[C@H](O)[C@@H]2O | 101
CC(Oc1c(Cl)cccc1Cl)C1=NCCN1 (centres undefined) [Lofexidine] | 92.5 ± 12
CC(Oc1c(Cl)cccc1Cl)C1=NCCN1 (centres undefined) | 102
CC1=C(CC(=O)O)c2cc(F)ccc2/C1=C\c1ccc([S+](C)[O-])cc1 (centres undefined) [Sulindac] | 105 ± 12
CC1=C(CC(=O)O)c2cc(F)ccc2/C1=C\c1ccc([S+](C)[O-])cc1 (centres undefined) | 101
CC[N+](CC)(CC)CCC(O)(c1ccccc1)C1CCCCC1 (centres undefined) [Tridihexethyl chloride] | 95.6
Cc1noc(NS(=O)(=O)c2ccc(N)cc2)c1C | 96.9
Cc1noc(NS(=O)(=O)c2ccc(N)cc2)c1C [Sulfisoxazole] | 93.5
CCc1cccc2c3c([nH]c12)C(CC)(CC(=O)O)OCC3 (centres undefined) [Etodolac] | 103 ± 15
CCc1cccc2c3c([nH]c12)C(CC)(CC(=O)O)OCC3 (centres undefined) | 107

Looked up one by one from the list above (two):
Compound | cell viability [%]
CC(CN1c2ccccc2Sc2ccccc21)N(C)C (centres undefined) [Promethazine hydrochloride] | 96.1 ± 1.4
O=C(CCCCCCCCCCCCC1CCCC1)Nc1ccc(S(=O)(=O)c2ccc(NC(=O)CCCCCCCCCCCCC3CCCC3)cc2)cc1 | 72.4
